{"sequences": {"note": "Protein sequences, listed by entry. Tags and fused reporters are not part of them. Lines headed by an entry give the natural chain unless they say otherwise; changes in a name come on top.", "UniProt Q9ZP06": "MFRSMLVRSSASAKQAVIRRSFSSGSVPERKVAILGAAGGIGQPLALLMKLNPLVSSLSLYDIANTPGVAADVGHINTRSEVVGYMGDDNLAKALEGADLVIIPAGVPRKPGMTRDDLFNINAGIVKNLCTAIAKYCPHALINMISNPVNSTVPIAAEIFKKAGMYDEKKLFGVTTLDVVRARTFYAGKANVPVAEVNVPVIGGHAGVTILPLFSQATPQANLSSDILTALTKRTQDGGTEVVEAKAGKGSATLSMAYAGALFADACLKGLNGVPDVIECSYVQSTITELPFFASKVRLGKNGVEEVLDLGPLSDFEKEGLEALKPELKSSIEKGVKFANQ", "UniProt Q9LKA3": "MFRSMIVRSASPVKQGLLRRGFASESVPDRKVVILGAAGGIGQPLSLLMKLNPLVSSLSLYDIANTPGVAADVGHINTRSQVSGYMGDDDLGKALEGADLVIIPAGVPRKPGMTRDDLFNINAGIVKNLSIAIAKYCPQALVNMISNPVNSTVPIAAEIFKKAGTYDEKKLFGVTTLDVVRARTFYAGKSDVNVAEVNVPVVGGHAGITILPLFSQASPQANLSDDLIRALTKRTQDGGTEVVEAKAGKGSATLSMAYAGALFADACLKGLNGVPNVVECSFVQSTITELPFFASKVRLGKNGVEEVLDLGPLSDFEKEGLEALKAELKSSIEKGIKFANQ", "UniProt O82663": "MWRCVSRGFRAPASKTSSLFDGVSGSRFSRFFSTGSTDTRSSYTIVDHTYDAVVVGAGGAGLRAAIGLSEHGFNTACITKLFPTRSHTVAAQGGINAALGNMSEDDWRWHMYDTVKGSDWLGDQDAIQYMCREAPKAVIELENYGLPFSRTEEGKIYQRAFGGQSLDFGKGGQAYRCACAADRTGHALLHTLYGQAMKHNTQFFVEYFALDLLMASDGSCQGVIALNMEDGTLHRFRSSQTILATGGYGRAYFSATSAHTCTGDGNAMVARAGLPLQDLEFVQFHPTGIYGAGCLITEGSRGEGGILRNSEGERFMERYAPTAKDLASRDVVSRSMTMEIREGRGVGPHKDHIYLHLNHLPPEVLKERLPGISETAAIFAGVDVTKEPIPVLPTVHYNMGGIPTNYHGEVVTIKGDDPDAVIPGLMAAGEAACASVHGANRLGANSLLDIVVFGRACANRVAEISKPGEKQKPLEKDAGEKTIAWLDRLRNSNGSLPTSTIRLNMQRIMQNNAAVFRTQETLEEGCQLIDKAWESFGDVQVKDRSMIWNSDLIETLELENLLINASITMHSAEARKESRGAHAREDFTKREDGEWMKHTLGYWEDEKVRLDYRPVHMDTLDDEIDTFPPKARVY", "UniProt P93033": "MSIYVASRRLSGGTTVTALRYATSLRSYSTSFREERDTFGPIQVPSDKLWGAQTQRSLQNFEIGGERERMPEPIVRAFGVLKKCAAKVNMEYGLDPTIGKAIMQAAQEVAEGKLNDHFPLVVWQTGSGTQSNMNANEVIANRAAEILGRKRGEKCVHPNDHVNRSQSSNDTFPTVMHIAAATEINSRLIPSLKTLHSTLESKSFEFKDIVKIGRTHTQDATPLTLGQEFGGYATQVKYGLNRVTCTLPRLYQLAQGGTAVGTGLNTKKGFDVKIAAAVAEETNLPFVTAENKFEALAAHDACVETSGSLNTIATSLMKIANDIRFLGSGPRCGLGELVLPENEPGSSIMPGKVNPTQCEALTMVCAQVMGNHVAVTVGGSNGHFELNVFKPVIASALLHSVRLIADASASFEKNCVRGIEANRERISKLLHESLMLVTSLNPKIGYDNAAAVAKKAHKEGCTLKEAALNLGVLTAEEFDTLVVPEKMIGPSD"}, "source": "paper PMC5440813", "molecules": {"B1": {"name": "lipoamide dehydrogenase (LPD) 2 (enzyme, UniProt Q9M5K2 1-507)", "chain": "MAMASLARRKAYFLTRNISNSPTDAFRFSFSLTRGFASSGSDDNDVVIIGGGPGGYVAAIKAAQLGLKTTCIEKRGALGGTCLNVGCIPSKALLHSSHMYHEAKHVFANHGVKVSSVEVDLPAMLAQKDTAVKNLTRGVEGLFKKNKVNYVKGYGKFLSPSEVSVDTIDGENVVVKGKHIIVATGSDVKSLPGITIDEKKIVSSTGALSLTEIPKKLIVIGAGYIGLEMGSVWGRLGSEVTVVEFAADIVPAMDGEIRKQFQRSLEKQKMKFMLKTKVVGVDSSGDGVKLIVEPAEGGEQTTLEADVVLVSAGRTPFTSGLDLEKIGVETDKGGRILVNERFSTNVSGVYAIGDVIPGPMLAHKAEEDGVACVEFIAGKHGHVDYDKVPGVVYTYPEVASVGKTEEQLKKEGVSYNVGKFPFMANSRAKAIDTAEGMVKILADKETDKILGVHIMSPNAGELIHEAVLAINYDASSEDIARVCHAHPTMSEAIKEAAMATYDKPIHM"}}, "key": {"[1]": {"target": "T1, succinate dehydrogenase (SDH) subunit SDH2-2 (Arabidopsis thaliana) (UniProt Q8LB02)", "T1 sequence": "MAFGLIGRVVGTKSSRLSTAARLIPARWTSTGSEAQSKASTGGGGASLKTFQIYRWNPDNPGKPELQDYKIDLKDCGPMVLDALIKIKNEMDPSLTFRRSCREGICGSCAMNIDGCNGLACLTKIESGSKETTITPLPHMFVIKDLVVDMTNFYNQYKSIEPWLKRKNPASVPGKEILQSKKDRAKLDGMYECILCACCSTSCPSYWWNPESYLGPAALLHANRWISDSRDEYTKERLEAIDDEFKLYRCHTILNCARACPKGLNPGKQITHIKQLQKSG", "experiment": "affinity purification with mass spectrometry + split reporter + two-hybrid; compromise score that integrates the AP-MS, split-LUC and Y2H data of the 38 x 38 screen (STATIS-like); interaction: compromise score above the threshold of about 0.6"}, "[2]": {"target": "T2, succinate dehydrogenase (SDH) subunit SDH4 (Arabidopsis thaliana) (UniProt Q941A0)", "T2 sequence": "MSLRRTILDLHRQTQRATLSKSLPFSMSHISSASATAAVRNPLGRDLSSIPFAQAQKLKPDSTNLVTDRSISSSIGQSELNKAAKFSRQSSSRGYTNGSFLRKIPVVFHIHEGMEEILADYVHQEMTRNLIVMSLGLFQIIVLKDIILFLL", "experiment": "affinity purification with mass spectrometry + split reporter + two-hybrid; compromise score that integrates the AP-MS, split-LUC and Y2H data of the 38 x 38 screen (STATIS-like); interaction: compromise score above the threshold of about 0.6"}, "[3]": {"target": "malate dehydrogenase (MDH) 1 (Arabidopsis thaliana) (UniProt Q9ZP06)", "experiment": "affinity purification with mass spectrometry + split reporter + two-hybrid; compromise score that integrates the AP-MS, split-LUC and Y2H data of the 38 x 38 screen (STATIS-like); interaction: compromise score above the threshold of about 0.6"}, "[4]": {"target": "malate dehydrogenase (MDH) 2 (Arabidopsis thaliana) (UniProt Q9LKA3)", "experiment": "affinity purification with mass spectrometry + split reporter + two-hybrid; compromise score that integrates the AP-MS, split-LUC and Y2H data of the 38 x 38 screen (STATIS-like); interaction: compromise score above the threshold of about 0.6"}, "[5]": {"target": "succinate dehydrogenase (SDH) subunit SDH1-1 (Arabidopsis thaliana) (UniProt O82663)", "experiment": "affinity purification with mass spectrometry + split reporter + two-hybrid; compromise score that integrates the AP-MS, split-LUC and Y2H data of the 38 x 38 screen (STATIS-like); interaction: compromise score above the threshold of about 0.6"}, "[6]": {"target": "T3, isocitrate dehydrogenase (IDH) subunit IDH1 (Arabidopsis thaliana) (UniProt Q8LFC0)", "T3 sequence": "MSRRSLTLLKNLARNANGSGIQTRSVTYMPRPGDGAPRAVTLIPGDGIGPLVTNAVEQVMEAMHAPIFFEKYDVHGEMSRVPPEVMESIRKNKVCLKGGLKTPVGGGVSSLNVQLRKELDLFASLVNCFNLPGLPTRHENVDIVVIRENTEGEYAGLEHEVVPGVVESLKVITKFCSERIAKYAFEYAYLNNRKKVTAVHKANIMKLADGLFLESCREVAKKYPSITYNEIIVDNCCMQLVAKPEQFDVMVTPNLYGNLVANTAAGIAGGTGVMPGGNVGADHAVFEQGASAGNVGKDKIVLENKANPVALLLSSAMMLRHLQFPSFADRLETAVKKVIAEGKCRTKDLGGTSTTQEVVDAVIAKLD", "experiment": "affinity purification with mass spectrometry; C-terminal GFP-tagged bait expressed in PSB-D Arabidopsis cell culture; extract (25 mM Tris-HCl pH 7.5, 15 mM MgCl2, 5 mM EGTA, 0.1% NP40) on GFP-Trap_A beads 1 h at 4 °C, washes with 0, 250 and 500 mM NaCl; LC-MS/MS, FC-A score (SAINT); positive: top 10% of scores (3.9)"}, "[7]": {"target": "T4, succinate dehydrogenase (SDH) subunit SDH2-3 (Arabidopsis thaliana) (UniProt Q9FJP9)", "T4 sequence": "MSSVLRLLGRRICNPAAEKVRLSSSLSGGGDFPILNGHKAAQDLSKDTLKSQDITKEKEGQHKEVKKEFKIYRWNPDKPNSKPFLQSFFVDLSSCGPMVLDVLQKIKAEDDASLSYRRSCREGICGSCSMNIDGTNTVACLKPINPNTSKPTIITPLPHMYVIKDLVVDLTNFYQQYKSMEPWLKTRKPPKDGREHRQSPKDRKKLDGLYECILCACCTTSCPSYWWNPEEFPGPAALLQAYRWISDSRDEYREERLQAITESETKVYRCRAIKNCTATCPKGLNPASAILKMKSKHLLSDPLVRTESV", "experiment": "affinity purification with mass spectrometry; C-terminal GFP-tagged bait expressed in PSB-D Arabidopsis cell culture; extract (25 mM Tris-HCl pH 7.5, 15 mM MgCl2, 5 mM EGTA, 0.1% NP40) on GFP-Trap_A beads 1 h at 4 °C, washes with 0, 250 and 500 mM NaCl; LC-MS/MS, FC-A score (SAINT); positive: top 10% of scores (3.9)"}, "[8]": {"target": "T5, citrate synthase (CSY) 4 (Arabidopsis thaliana) (UniProt P20115)", "T5 sequence": "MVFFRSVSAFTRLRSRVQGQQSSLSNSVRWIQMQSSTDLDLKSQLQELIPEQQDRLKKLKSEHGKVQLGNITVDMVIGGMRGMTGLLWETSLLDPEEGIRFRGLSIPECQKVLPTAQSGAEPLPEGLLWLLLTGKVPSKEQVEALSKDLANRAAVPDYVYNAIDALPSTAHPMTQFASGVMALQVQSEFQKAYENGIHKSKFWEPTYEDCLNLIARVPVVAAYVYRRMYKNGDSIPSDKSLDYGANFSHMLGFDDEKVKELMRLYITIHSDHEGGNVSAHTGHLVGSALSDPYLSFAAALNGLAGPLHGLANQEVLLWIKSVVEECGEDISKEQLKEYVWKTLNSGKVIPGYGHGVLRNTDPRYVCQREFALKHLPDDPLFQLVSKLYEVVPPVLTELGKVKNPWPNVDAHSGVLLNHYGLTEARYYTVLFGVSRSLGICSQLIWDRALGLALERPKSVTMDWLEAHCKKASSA", "experiment": "affinity purification with mass spectrometry + split reporter + two-hybrid; compromise score that integrates the AP-MS, split-LUC and Y2H data of the 38 x 38 screen (STATIS-like); interaction: compromise score above the threshold of about 0.6"}, "[9]": {"target": "succinyl-CoA ligase (SCoAL) regulatory subunit SCoALb (Arabidopsis thaliana)", "experiment": "affinity purification with mass spectrometry + split reporter + two-hybrid; compromise score that integrates the AP-MS, split-LUC and Y2H data of the 38 x 38 screen (STATIS-like); interaction: compromise score above the threshold of about 0.6"}}, "note": "Results are given in words; binding and its absence hold for the method and conditions named. In cells and extracts the contact can be indirect. Here binding means that the protein was enriched with, or labelled near, the bait; the list need not be complete. For part of these data: A no says only that the protein was not detected with the bait."}
{"molecule": "succinyl-CoA ligase (SCoAL) regulatory subunit SCoALb (Arabidopsis thaliana)", "values": [{"measurement": "binding", "setting": "[1]", "result": "binds"}, {"measurement": "binding", "setting": "[2]", "result": "binds"}]}
{"molecule": "fumarase (FUM) 1 (from UniProt P93033 1-492) (enzyme)", "values": [{"measurement": "binding", "setting": "[3]", "result": "no binding"}, {"measurement": "binding", "setting": "[4]", "result": "binds"}, {"measurement": "binding", "setting": "[5]", "result": "no binding"}, {"measurement": "binding", "setting": "[6]", "result": "no binding"}]}
{"molecule": "succinate dehydrogenase (SDH) subunit SDH1-1 (from UniProt O82663 1-634) (enzyme)", "values": [{"measurement": "binding", "setting": "[7]", "result": "binds"}]}
{"molecule": "B1", "values": [{"measurement": "binding", "setting": "[8]", "result": "binds"}, {"measurement": "binding", "setting": "[9]", "result": "binds"}]}
